In PubChem BioAssay AID1439 (NMMLSC, 2008):
Hit rate of the full screen: of about 220,000 compounds, about 770 (0.35%) were called active. This list was built around the results that the source calls inconclusive (neither active nor inactive); the mix of calls is not that of the screen. Cut-off read from the data, not from the text of the source: active = binding response below about 49% or above about 150%; inconclusive = no clear call, values can overlap the other calls; inactive = in between.

The chains behind the UniProt entries cited, without tags or fusion partners.
UniProt P09471, whole entry, looked up: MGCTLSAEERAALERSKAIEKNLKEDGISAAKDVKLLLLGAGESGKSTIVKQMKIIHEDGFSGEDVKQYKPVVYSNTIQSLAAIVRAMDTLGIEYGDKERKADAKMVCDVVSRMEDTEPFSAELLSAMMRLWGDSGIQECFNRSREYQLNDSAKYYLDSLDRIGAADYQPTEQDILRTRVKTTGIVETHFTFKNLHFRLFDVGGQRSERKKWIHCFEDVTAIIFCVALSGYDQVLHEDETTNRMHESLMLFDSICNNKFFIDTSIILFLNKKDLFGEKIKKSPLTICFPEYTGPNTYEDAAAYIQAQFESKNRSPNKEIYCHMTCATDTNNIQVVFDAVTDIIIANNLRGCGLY

Target: Guanine nucleotide-binding protein G(o) subunit alpha (Homo sapiens) (UniProt P09471)
Test: RGS7-Galphao binding modulators, primary screen, biochemical, multiplexed bead flow cytometry (AID 1439);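 note: fluorescent Galphao held in activated GDP-AlF4 state binding bead-coupled RGS7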
Settings: at 10 µM, actives lie on both sides

**Q.** Which binding response (% of control) does the source give for OCCC1CN(Cc2nc3ccc(F)cc3[nH]2)CCN1C1CCCC1 (centres undefined) here?
**A.** The binding response (% of control) was inconclusive: 97.4%.

**Q.** With Cc1ccc(Nc2nnc(C3C(=O)N(C)C4(C)CC3c3cc(Br)ccc3O4)s2)cc1 (centres undefined) as the compound, how does the binding response (% of control) read?
**A.** Its binding response (% of control) is inactive: 103%.

**Q.** How did the binding response (% of control) turn out when COc1ccccc1-c1nc(=S)c(C(C)=O)c(C)[nH]1 was run?
**A.** The binding response (% of control) was inconclusive: 42.6%.

**Q.** C/C=C(/C)C(=O)Nc1cccc(C2=NOC3(C2)C[C@@H](C(N)=O)N(C(=O)CC)C3)c1 (some centres undefined) was tested. Which binding response (% of control) did it give?
**A.** The binding response (% of control) was inconclusive: 116%.

**Q.** With CCOCCCNC(=O)N[C@H](C(=O)OC)C(C)CC (some centres undefined) as the compound, how does the binding response (% of control) read?
**A.** The binding response (% of control) was inconclusive: 111%.

**Q.** How did the binding response (% of control) turn out when CC(C)(C)OC(=O)[C@H](Cc1ccccc1)NC(=O)c1[nH]cnc1C(=O)Nc1cccc(Cl)c1 was run?
**A.** Its binding response (% of control) is inconclusive: 103%.

**Q.** COc1cc(C(CCN2CCCC2)c2c(OC)cc(OC)c3ccc(=O)oc23)cc(OC)c1OC (centres undefined) was tested. Which binding response (% of control) did it give?
**A.** Its binding response (% of control) is inconclusive: 107%.

**Q.** How did the binding response (% of control) turn out when O=C(Nc1ccc(Oc2cccnc2)nc1)c1ccc(C(F)(F)F)cc1 was run?
**A.** Its binding response (% of control) is inconclusive: -51.3%.

**Q.** For CCOc1cc(/C=N/NC(=O)CSc2nncn2C)ccc1OCC(N)=O, which binding response (% of control) is on record?
**A.** The binding response (% of control) was inconclusive: 90.8%.

**Q.** With Cc1nn(CC(=O)O)c(C)c1N as the compound, how does the binding response (% of control) read?
**A.** The binding response (% of control) was inconclusive: 122%.

**Q.** For CC(C)NC(=O)CN1CCN(Cc2nc(C(c3ccccc3)c3ccccc3)no2)CC1, which binding response (% of control) is on record?
**A.** Its binding response (% of control) is inactive: 94.7%.

**Q.** For O=C(c1nc2ccccn2c1CN1CCC(Cc2ccccc2)CC1)N1CCCC1, which binding response (% of control) is on record?
**A.** Its binding response (% of control) is inactive: 124%.

**Q.** Which binding response (% of control) does the source give for COC(=O)c1ccc(Cl)c(NC(=O)NC23CC4CC(CC(C4)C2)C3)c1 here?
**A.** The binding response (% of control) was inactive: 103%.

**Q.** Which binding response (% of control) does the source give for O=C(/C=C(\c1ccc(Cl)cc1)n1cncn1)c1ccc(Cl)cc1 here?
**A.** Its binding response (% of control) is inactive: 97.1%.

**Q.** Which binding response (% of control) does the source give for O=C1CCCN1CCCN=c1c([N+](=O)[O-])nn(-c2ccc(Cl)cc2)n1O here?
**A.** Its binding response (% of control) is inconclusive: 102%.

**Q.** How did the binding response (% of control) turn out when C=CCOc1nc(-c2ccccc2Cl)nc2ccccc12 was run?
**A.** Its binding response (% of control) is inconclusive: 105%.

**Q.** For Cc1c(Nc2cc(N3CCOCC3)c3nonc3c2[N+](=O)[O-])c(=O)n(-c2ccccc2)n1C, which binding response (% of control) is on record?
**A.** The binding response (% of control) was inconclusive: 63.6%.

**Q.** Which binding response (% of control) does the source give for O=C(CC1SC(=NCC2CCCO2)NC1=O)Nc1cc([N+](=O)[O-])ccc1Cl (centres undefined) here?
**A.** Its binding response (% of control) is inconclusive: 89.9%.

**Q.** Which binding response (% of control) does the source give for CCN1CSC(=S)N(Cc2ccc(OC)cc2)C1 here?
**A.** The binding response (% of control) was inconclusive: 82.1%.

**Q.** With O=C1C2C3c4ccccc4C(c4ccccc43)[C@@H]2C(=O)N1c1ccccn1 (some centres undefined) as the compound, how does the binding response (% of control) read?
**A.** The binding response (% of control) was inconclusive: 907%.

**Q.** How did the binding response (% of control) turn out when CC(CC(=O)Nc1cccnc1)c1ccccc1 (centres undefined) was run?
**A.** Its binding response (% of control) is inconclusive: 76.6%.

**Q.** With O=C(CCCO)NNc1c2ccccc2nc2ccccc12 as the compound, how does the binding response (% of control) read?
**A.** Its binding response (% of control) is inconclusive: 109%.

**Q.** With CCC(CC)C(=O)N1N=C(c2ccc(NS(C)(=O)=O)cc2)CC1c1ccccc1 (centres undefined) as the compound, how does the binding response (% of control) read?
**A.** Its binding response (% of control) is inconclusive: 137%.

**Q.** For COc1ccc2c(c1)[nH]c1c(=O)n(CCN3CCOCC3)cnc12, which binding response (% of control) is on record?
**A.** Its binding response (% of control) is inconclusive: 323%.

**Q.** How did the binding response (% of control) turn out when CCNC1CCS(=O)(=O)C1 (centres undefined) was run?
**A.** The binding response (% of control) was inconclusive: 98.7%.

**Q.** For COC(=O)C/C(N)=C(\C#N)C(=O)OC, which binding response (% of control) is on record?
**A.** The binding response (% of control) was inconclusive: -94.5%.

**Q.** How did the binding response (% of control) turn out when O=C(CCn1ccc([N+](=O)[O-])n1)Nc1nccs1 was run?
**A.** Its binding response (% of control) is inactive: 97.4%.

**Q.** Cc1cc(C)c(N2C(=O)C3C4CC(=O)C(c5ccccc54)C3C2=O)c(C)c1 (centres undefined) was tested. Which binding response (% of control) did it give?
**A.** The binding response (% of control) was inconclusive: 136%.

**Q.** How did the binding response (% of control) turn out when N#C/C(=C(/O)c1ccc([N+](=O)[O-])cc1)c1nnc2n1CCCCC2 was run?
**A.** The binding response (% of control) was inconclusive: 78%.

**Q.** Which binding response (% of control) does the source give for Cn1c(SCc2c(F)cccc2Cl)nc2c(c1=O)SCC2 here?
**A.** The binding response (% of control) was inconclusive: 111%.

**Q.** How did the binding response (% of control) turn out when O=[N+]([O-])c1ccccc1Nc1c2ccccc2nc2ccccc12 was run?
**A.** Its binding response (% of control) is inconclusive: 109%.

**Q.** CCN(CC(=O)Nc1sc2c(c1C#N)CCCC2)Cc1nc2ccccc2c(=O)[nH]1 was tested. Which binding response (% of control) did it give?
**A.** Its binding response (% of control) is inconclusive: 87.1%.

**Q.** How did the binding response (% of control) turn out when CNC(=S)Nc1cccc(Cl)c1C was run?
**A.** The binding response (% of control) was inconclusive: 102%.

**Q.** Which binding response (% of control) does the source give for COc1ccc(Nc2cc(C)c3c(O)cccc3n2)cc1 here?
**A.** Its binding response (% of control) is inconclusive: 60.5%.

**Q.** For Nc1ccc2c(c1)N=[N+]([O-])c1cc(N)ccc1C2, which binding response (% of control) is on record?
**A.** Its binding response (% of control) is inconclusive: 63.3%.

**Q.** Cn1c(SCC(=O)c2cc(Cl)c(Cl)s2)nnc1-c1ccco1 was tested. Which binding response (% of control) did it give?
**A.** The binding response (% of control) was inconclusive: -4.64%.

**Q.** Which binding response (% of control) does the source give for O=C(c1cccs1)N1CCN(c2ncc(Br)cn2)CC1 here?
**A.** The binding response (% of control) was inconclusive: 74.4%.

**Q.** How did the binding response (% of control) turn out when CC(C)Oc1ccc(CCC(=O)NNC(=S)Nc2ccccc2)cc1 was run?
**A.** The binding response (% of control) was inconclusive: -164%.

**Q.** How did the binding response (% of control) turn out when NC(=O)c1ccc(NC(=O)c2cccc3c2OCCCO3)cc1 was run?
**A.** The binding response (% of control) was inconclusive: 175%.

**Q.** For CCOC(=O)Cc1ncccc1C(=O)Nc1ccc(Oc2ccccc2)cc1, which binding response (% of control) is on record?
**A.** The binding response (% of control) was inactive: 103%.

**Q.** For Cc1ccc(-c2n[nH]c(=O)c3ccccc23)cc1S(=O)(=O)Nc1ccc(F)cc1, which binding response (% of control) is on record?
**A.** Its binding response (% of control) is inconclusive: 91.2%.

**Q.** Which binding response (% of control) does the source give for C=CCn1c(O)c(/C=C2\C=NN=C2c2ccccc2)sc1=S here?
**A.** The binding response (% of control) was inconclusive: 176%.

**Q.** Which binding response (% of control) does the source give for CN(C)C=NC(=O)/C(C#N)=C/c1ccccc1 here?
**A.** Its binding response (% of control) is inactive: 103%.

**Q.** How did the binding response (% of control) turn out when NCC(c1ccccc1)(c1ccccc1)c1ccccc1 was run?
**A.** Its binding response (% of control) is inactive: 97.5%.

**Q.** How did the binding response (% of control) turn out when NC(=O)c1cc(Br)cc(C2CCCCC2)c1O was run?
**A.** The binding response (% of control) was inconclusive: 591%.

**Q.** For COC1=C/C(=C/c2c(N)n3cc(C)sc3nc2=O)C=CC1=O, which binding response (% of control) is on record?
**A.** Its binding response (% of control) is inactive: 134%.

**Q.** COc1ccc(N2CS(=O)CC2=O)cc1 (centres undefined) was tested. Which binding response (% of control) did it give?
**A.** Its binding response (% of control) is inactive: 91.5%.

**Q.** For O=C(O)CSc1cc(C(=O)c2ccccc2O)cn2c(=O)c3c(-c4ccccc4)csc3nc12, which binding response (% of control) is on record?
**A.** Its binding response (% of control) is inconclusive: 114%.

**Q.** With COc1ccc(OC)c(-c2csc(NC(=O)c3ccc4c(c3)OCO4)n2)c1 as the compound, how does the binding response (% of control) read?
**A.** Its binding response (% of control) is inconclusive: 94.1%.

**Q.** How did the binding response (% of control) turn out when O=S(=O)([N-]c1nc2ccccc2nc1-n1cc[n+](Cc2ccccc2)c1)c1ccc(Br)cc1 was run?
**A.** Its binding response (% of control) is inconclusive: 98.9%.

**Q.** With Cc1cccc(-n2c(=S)[nH]c3nc4c(cc3c2=O)COC(C)(C)C4)c1 as the compound, how does the binding response (% of control) read?
**A.** Its binding response (% of control) is inconclusive: 276%.

**Q.** C/C(=N\O)c1cccc(Br)c1 was tested. Which binding response (% of control) did it give?
**A.** The binding response (% of control) was inconclusive: 188%.

**Q.** Which binding response (% of control) does the source give for CCCCCCOc1ccc(N2C(=O)CC(SC(=NCC)NCC)C2=O)cc1 (centres undefined) here?
**A.** Its binding response (% of control) is inactive: 108%.

**Q.** COC(=O)c1sccc1S(=O)(=O)Nc1ccc(N2CCCCC2)cc1 was tested. Which binding response (% of control) did it give?
**A.** Its binding response (% of control) is inconclusive: 110%.

**Q.** NC(=O)c1ccc(NC(=O)CN2CCN(c3ccc(Cl)cc3)CC2)cc1 was tested. Which binding response (% of control) did it give?
**A.** Its binding response (% of control) is active: 34.3%.

**Q.** For Cc1cc(/C=C2\C(=N)N3N=C(c4ccco4)SC3=NC2=O)c(C)n1Cc1ccccc1, which binding response (% of control) is on record?
**A.** The binding response (% of control) was inconclusive: 148%.

**Q.** For COc1ccc(/C=N/OCC(=O)NC(c2ccccc2)c2ccccc2)cc1OC, which binding response (% of control) is on record?
**A.** The binding response (% of control) was inactive: 82.5%.

**Q.** With O=C(NCc1cccnc1)c1ccc(COc2cccc3ccccc23)o1 as the compound, how does the binding response (% of control) read?
**A.** The binding response (% of control) was active: 46.8%.

**Q.** How did the binding response (% of control) turn out when O=C(CSc1nnc(CNc2ccc(F)cc2)o1)c1ccccc1 was run?
**A.** Its binding response (% of control) is inactive: 96.8%.
